Results reported in article PMC5550455, “Unusual Inner-Salt Guaiazulene Alkaloids and bis-Sesquiterpene from the South China Sea Gorgonian Muriceides collaris” (Scientific Reports, 2017).

Tested on: larvae of the barnacle Balanus albicostatus
Test: Antifouling assay, barnacle larval settlement and mortality
Format: in vivo, Balanus albicostatus Pilsbry
Protocol: The antifouling activity of compounds 1–6 against larval of the barnacle Balanus albicostatus Pilsbry were determined according to the literature. EC50 was calculated as the concentration where 50% of the larval population was inhibited to settle as compared to the control while LC50 was calculated as the concentration where 50% of the larval population was dead. Experiments were repeated three times and carried out in triplicate.

Row | SMILES | therapeutic index LC50/EC50
1 | Cc1cc(/C=C2\CCCN=C2C(=O)O)c2c(C)ccc(C(C)C)cc1-2 [compound 1, Muriceidine A] | 3.66
2 | Cc1cc(C=O)c2c(C)ccc(C(C)C)cc1-2 [compound 6, 3-formyl guaiazulene] | 2.60
